# This is one part of the list. Values are raw readings; no control value is given beside them.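 In the initial screen, polymyxin B was used at a concentration that permeabilizes Salmonella's outer membrane but not its inner membrane. Maximum growth was set by DMSO wells with or without polymyxin B. Since plates varied, data were ranked per plate, and compounds giving the lowest OD600 advanced as hits.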
# Test system: Salmonella enterica serovar Typhimurium SL1344
# Experiment: bacterial growth OD600 after 18 h with compound and polymyxin B; higher = more bacterial growth (less inhibition)
# Details: 50 µM, Mueller-Hinton broth
Structure (SMILES),bacterial growth OD600 (polymyxin B 0.75 µg/mL),bacterial growth OD600 (polymyxin B 1 µg/mL)
COCCCN1C(=O)CC(CC(=O)N2CCC(Cc3ccccc3)CC2)(c2ccccc2OC)C1=O (stereo not given),0.003,–
O=C(NCC1(c2ccccc2)CCCCC1)c1cc(CN2CCCC(O)C2)on1 (stereo not given),0.694,–
O[C@@H]1CN(Cc2cc3ccccc3s2)CC[C@H]1N1CCN(c2ccccn2)CC1,–,1.01
CCOC(=O)C1(CCc2ccccc2)CCN(Cc2cnn(C)c2C)CC1,–,0.924
COCCO[C@H]1[C@H](NC(=O)C(C)C)c2ccccc2C12CCN(C(=O)c1c(F)cccc1F)CC2,0.79,–
Cc1ccc(C(=O)N2CCC3(CCCN(Cc4ccc(F)cc4)C3)C2)cn1 (stereo not given),–,0.91
COCCN1C(=O)CC(CC(=O)N2CCN(c3ccc(C)cc3C)CC2)(c2cccc(OC)c2)C1=O (stereo not given),0.19,–
COc1ccc(-n2ncc3c2CC(C)(C)CC3NC(=O)CSc2ncccn2)cc1 (stereo not given),–,0.961
CN(Cc1cn(C)nc1-c1ccc2c(c1)OCCO2)Cc1cccc2ncccc12,–,0
Cc1ccccc1-c1cn2c(C(=O)N(C)C(C)c3ccccn3)csc2n1 (stereo not given),–,1.15
O=C(CCC1CCCN(C2CCSCC2)C1)Nc1ccccc1F (stereo not given),–,0.853
O=C(CCC1CCN(Cc2cccn2-c2nccs2)CC1)NCc1cccnc1,–,0.95
COc1ccc(CCC2CCCN(C(=O)c3cc(C)nc(C)n3)C2)cc1 (stereo not given),0.821,–
COCc1ccc(C(=O)NCc2c(C)ncc3c2CCN(C(=O)c2ccc(OC)c(F)c2)C3)o1,0.866,–
COCC(=O)Nc1cc(C(=O)N2CCN(c3ccccc3)CC2)cc2ncn(CCc3ccccc3)c12,0.802,–
CCNC(=O)NC(C)c1cnc(N(C)C2CCCCC2)nc1C (stereo not given),0.848,–
O=C(CCC1CCN(C(=O)c2ccc3c(c2)OCO3)CC1)NCc1cccnc1,–,0.993
COc1ccc(F)c(CC2(CCC(=O)N3CCCCC3c3ccccn3)CCC(=O)N2)c1 (stereo not given),0.824,–
O=C1CC[C@@H](CN(Cc2ccccc2)C(=O)c2cc(C(c3ccccc3)c3ccccc3)no2)N1,0,–
CC(C)CCCC1CN(C(=O)CN2CCCC2=O)CCO1 (stereo not given),–,0.971
COCCC1CCCCN1C(=O)c1cc(NC(=O)C2CCCCC2)cc2ncn(CCOC)c12 (stereo not given),0.935,–
COC(=O)CCNC(=O)c1cc(Cl)ccc1OC1CCN(C(C)=O)CC1,–,0.98
Cc1oc(-c2cc(F)cc(F)c2)nc1CN1CCOCC1,0.808,–
CC(C)N(CC1CCC(=O)N1)C(=O)c1ccc2oc(CCCc3ccccc3)nc2c1 (stereo not given),–,0.999
CN(C)S(=O)(=O)N1CCC2(CCCN(CC3CCCCC3)C2=O)C1 (stereo not given),–,0.604
CC(O)(COc1ccccc1)c1ccc2c(c1)CN(Cc1ccc(F)cc1)CCO2 (stereo not given),0.007,–
O=C(N[C@H]1CCCCNC1=O)c1coc(COc2ccc(F)cc2)n1,–,0.946
CCN(Cc1nccn1C)C(=O)c1ccc(N2CCC(OC)CC2)nc1,–,0.962
O=C1N(Cc2ccccc2F)CCCC1(O)CNC1CCC1 (stereo not given),–,0.96
CN(Cc1ccccc1)C1(C(=O)N2CCC(C(N)=O)CC2)Cc2ccccc2C1,–,1.21

# Random excerpt: 2 compounds from above
Structure (SMILES),bacterial growth OD600 (polymyxin B 0.75 µg/mL),bacterial growth OD600 (polymyxin B 1 µg/mL)
COCCN1C(=O)CC(CC(=O)N2CCN(c3ccc(C)cc3C)CC2)(c2cccc(OC)c2)C1=O (stereo not given),0.19,–
COc1ccc(F)c(CC2(CCC(=O)N3CCCCC3c3ccccn3)CCC(=O)N2)c1 (stereo not given),0.824,–

# Reference: the supplement of paper PMC12889115
